Experimental data: paper PMC7819943, “Rice protein-binding microarrays: a tool to detect cis-acting elements near promoter regions in rice”
Some of the results follow.

Sequences of proteins named here, by UniProt entry; tags and fusion partners are left off.
UniProt Q0JBA9, entry or part of it: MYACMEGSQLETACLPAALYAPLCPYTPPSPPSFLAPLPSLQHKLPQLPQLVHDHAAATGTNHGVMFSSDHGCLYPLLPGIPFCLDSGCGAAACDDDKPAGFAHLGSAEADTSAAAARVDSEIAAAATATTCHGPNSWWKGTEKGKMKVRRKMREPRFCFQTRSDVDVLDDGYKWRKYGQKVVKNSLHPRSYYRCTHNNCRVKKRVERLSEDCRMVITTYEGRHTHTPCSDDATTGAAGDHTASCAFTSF

Each sequence was assayed against OsWRKY34 (Oryza sativa, UniProt Q0JBA9 1-250) (assay: protein-binding microarray (RPBM); PBS, 2% BSA, 51.3 ng/ul salmon testes DNA, 50 uM zinc acetate, 200 nM TF, 25 C, 1 h; high values mean tight binding). Details: protein: recombinant; tags: N-terminal polyhistidine and DsRed monomer fusion (pET32a); label: CyDye5-dUTP incorporated in the synthesized complementary strand; 3' TTTTT single-stranded linker to array surface; dsDNA, one strand shown.
Method in brief: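 Transcription factors were each fused at the N-terminus to a polyhistidine tag plus DsRed and expressed in E. coli BL21-CodonPlus before Ni–NTA purification. Binding to a double-stranded custom Agilent array was carried out with 200 nM protein at 25 °C for 1 h in PBS, 2% BSA, salmon testes DNA and 50 µM zinc acetate. The binding signal is per-feature fluorescence intensity, in arbitrary units, on an Axon 4000B scanner.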

Sequence	binding signal
CTCCATATTTTAATGTATGCCGCCGTTGACTTTTTGTTTACGGAGTCACCTAGTGCAG	20200 fluorescence intensity (a.u.)
ACCCACCACCACCACCACCGGCGCCGCCGCCGCCGCCGCCCGGAGTCACCTAGTGCAG	8180 fluorescence intensity (a.u.)
ACACGCAACATCTCTCTGCCCAATCCTCCTCCCGGCCAATCGGAGTCACCTAGTGCAG	9700 fluorescence intensity (a.u.)
CGCCTCACACCGCGGCCCCTCGCCACCGTCCCTGCGTCGCCGGAGTCACCTAGTGCAG	9800 fluorescence intensity (a.u.)
CATTATGTTTTGACTGCATCAGATCCCGAATTCGTGCCACCGGAGTCACCTAGTGCAG	8930 fluorescence intensity (a.u.)
CTTCAGCTTCTTCTTCGCCATCTCTCCTCCCTGCTGCTCTCGGAGTCACCTAGTGCAG	9230 fluorescence intensity (a.u.)
TTTTTTCTTGGCTCACTCAATCACCTCGCTTACATCGCCACGGAGTCACCTAGTGCAG	9260 fluorescence intensity (a.u.)
GGTGCATCCCACTATCGCTCTTTACACCCTCATTTGCAATCGGAGTCACCTAGTGCAG	10400 fluorescence intensity (a.u.)
CCAATAATATGCATATACACTGCTTACTTGACATGCCTTGCGGAGTCACCTAGTGCAG	8140 fluorescence intensity (a.u.)
CTCTTCGTTCGACCGCTAGACGGTCTTTGCGTTTCTGTTTCGGAGTCACCTAGTGCAG	10800 fluorescence intensity (a.u.)
TAAGGGTATTTTCGTATTCGGGGCTCTTAATTCATCCGCACGGAGTCACCTAGTGCAG	12200 fluorescence intensity (a.u.)
ACACTTCTTAGATAATTCGTTCGTGAGCATAATAGCCTTTCGGAGTCACCTAGTGCAG	8630 fluorescence intensity (a.u.)
CATTTCTCTGTAATGCTTTTCGATTAGGATGCCATTAATTCGGAGTCACCTAGTGCAG	9620 fluorescence intensity (a.u.)
TGGTCAATGTGCATTCGTCCTGTTCCTTTTCTTTCTTCCTCGGAGTCACCTAGTGCAG	8460 fluorescence intensity (a.u.)
AAGATTCAAACATGCCCTTTGAGGGGTGGGAAATCATATCCGGAGTCACCTAGTGCAG	11200 fluorescence intensity (a.u.)
TACACCCAACATGGCCACATGCACCATATCATCGCCAAATCGGAGTCACCTAGTGCAG	11700 fluorescence intensity (a.u.)
CTTACTCTGTCGCCTACTAGTCCACCTCTCACTGTTGTTCCGGAGTCACCTAGTGCAG	11500 fluorescence intensity (a.u.)
GGATTGGTTTTGAGATTGTTCTGTCAGATGGGGATTGTTTCGGAGTCACCTAGTGCAG	12700 fluorescence intensity (a.u.)
ATATCTCGTGTCATCTCTCCTTCATGCATACTGCTCAGTACGGAGTCACCTAGTGCAG	9290 fluorescence intensity (a.u.)
TCCCCGCGTCACCGGCCACCGGACCTCCTCTCTTGCGTCGCGGAGTCACCTAGTGCAG	8580 fluorescence intensity (a.u.)
ACAGTTTCTTCTCGTCACAACTTCCAATTTCCCATCGCCCCGGAGTCACCTAGTGCAG	8660 fluorescence intensity (a.u.)

Sequence	binding signal
TCCATGCCGCCGTCGCCGCCGCCGGCGCTCTCCCAGACGACGGAGTCACCTAGTGCAG	9160 fluorescence intensity (a.u.)
TCTCACACACTCTCTCGCACAAACTACATCATTTGGGATTCGGAGTCACCTAGTGCAG	9300 fluorescence intensity (a.u.)
CCCCACATTTTCTTTCACCTTCTCTTCCATTCCACCTCTCCGGAGTCACCTAGTGCAG	10100 fluorescence intensity (a.u.)
AGTAACTTAAGCTTTATCTTCTTATCTTGGCCCATCTCTTCGGAGTCACCTAGTGCAG	9740 fluorescence intensity (a.u.)
AACACCATCTCGTGCGCTCGTGGCCCTTGGATTCAACTACCGGAGTCACCTAGTGCAG	11000 fluorescence intensity (a.u.)
ATTATGTCATACATGCTGTCCAATTTTGTTCTATTTTGTTCGGAGTCACCTAGTGCAG	13100 fluorescence intensity (a.u.)
ATACTTTTTTCTGAACGAATCGACGCTTAGGTGCGCCCATCGGAGTCACCTAGTGCAG	8660 fluorescence intensity (a.u.)
TCCCACCTTTTTTCCGTTTCCTGCTTGCTTGCTTTCCTGACGGAGTCACCTAGTGCAG	12300 fluorescence intensity (a.u.)
TGTCTCGGCCCCACCCAACCCCACCCCTCGCCCGTAGACCCGGAGTCACCTAGTGCAG	8200 fluorescence intensity (a.u.)
CTTTTATTGTTTTTTTCCCTTGATATAGATCATGTGTGACCGGAGTCACCTAGTGCAG	8330 fluorescence intensity (a.u.)
CCACCGATCCACCAACACCACGAGCAAATTTCTCTTCCAACGGAGTCACCTAGTGCAG	11700 fluorescence intensity (a.u.)
GTCGCGATCATTTTTCACACGTCGGACGCTAGTCCACATCCGGAGTCACCTAGTGCAG	8380 fluorescence intensity (a.u.)
GGTTTGTTTTTTTTTGACGGAGGGAGTAGTTAAATTTGGCCGGAGTCACCTAGTGCAG	9120 fluorescence intensity (a.u.)
TTTCGATTTGGTTTGGTCGCATTTGGTTTGATTTGATTCTCGGAGTCACCTAGTGCAG	11100 fluorescence intensity (a.u.)
TCCTATTAGAATTCTACGTTTTTTCTATTTCTCTATTTTTCGGAGTCACCTAGTGCAG	14500 fluorescence intensity (a.u.)
AGTCGATTTAAGTTGGTTGGATTGGTGGTAGCGCGAAATCCGGAGTCACCTAGTGCAG	8450 fluorescence intensity (a.u.)
CGTGTTCATGACTCCAACACTCACTACCGGCCACTAGCTACGGAGTCACCTAGTGCAG	9760 fluorescence intensity (a.u.)
GGGTGTGTTTTCTCCTTAAAATACCTACATACACATATTTCGGAGTCACCTAGTGCAG	8280 fluorescence intensity (a.u.)
CGCGCGCCTCTCTCGGCCACACACCTCGCGCGTCCCCTTACGGAGTCACCTAGTGCAG	10200 fluorescence intensity (a.u.)
ATGACTCTGAAAATTTTGAGTGTTGTTTCCTTGATTTTTTCGGAGTCACCTAGTGCAG	9040 fluorescence intensity (a.u.)
GTTGGCTTGCTCTCTCTGTCCCGGGGCCACTGATCTTGGCCGGAGTCACCTAGTGCAG	8450 fluorescence intensity (a.u.)

Sequence	binding signal
CATTGGGCGGGCAGTCTATGACCTATGAAAGCTATCAAATCGGAGTCACCTAGTGCAG	12400 fluorescence intensity (a.u.)
AAGCGTCATCCTTATCGATCTTTCCATGATTTTTCAAAGACGGAGTCACCTAGTGCAG	8380 fluorescence intensity (a.u.)
GTGGCTGCGTGTGGTGGCGTTGCACGGCTCGGGTGGGCTCCGGAGTCACCTAGTGCAG	8660 fluorescence intensity (a.u.)
CACCTGCGCCTCGCATCCTACCTCGCCTGCCGCTTCAATCCGGAGTCACCTAGTGCAG	9200 fluorescence intensity (a.u.)
GCCGCCGCCGCCCTCGCCGTTGATTCCGCCGCCCGCCGCGCGGAGTCACCTAGTGCAG	9900 fluorescence intensity (a.u.)
AACACCAATCACCACGTACGCCGACCAACCCCATCCACCCCGGAGTCACCTAGTGCAG	8660 fluorescence intensity (a.u.)
CGTTGTACTAACATATGTCGCATACAGTTCTGATTTGTTTCGGAGTCACCTAGTGCAG	10100 fluorescence intensity (a.u.)
TGATATGGTGGGTTTGGACTTGTAGATGGGCATATGTACGCGGAGTCACCTAGTGCAG	8220 fluorescence intensity (a.u.)
GCTATTGACATAGTTCATGCTGTCTCGTACTTACATGGATCGGAGTCACCTAGTGCAG	9200 fluorescence intensity (a.u.)
ATCCATGCTAGCTTGCTCCGTATCTTTGACTTCACATTTACGGAGTCACCTAGTGCAG	9090 fluorescence intensity (a.u.)
GTGAGCAGGTCAATAGTATGTGTGATTTAGTTTGACCAGGCGGAGTCACCTAGTGCAG	11500 fluorescence intensity (a.u.)
CTTTACTTTGCAGCTATTTTGCTTCTGCTTCTTCTTGTTCCGGAGTCACCTAGTGCAG	9780 fluorescence intensity (a.u.)
TTTATCAGTTTCATTCTGAATTTCTGACAAGACATGCTAACGGAGTCACCTAGTGCAG	8880 fluorescence intensity (a.u.)
TATATATGTTTTTTTAATAGAAGTTTTGCATACATTTTTTCGGAGTCACCTAGTGCAG	9720 fluorescence intensity (a.u.)
TTCCTGCATGTTTCGGTTGCTAGATTGTTTCCTTGGGCGGCGGAGTCACCTAGTGCAG	8480 fluorescence intensity (a.u.)
CCACACCTACCACACTTAAATTTGCCTTATCTATCTACTGCGGAGTCACCTAGTGCAG	8580 fluorescence intensity (a.u.)
GACCATTATGTTAACTTGGATTAGGGGTAGGCTAGAGATTCGGAGTCACCTAGTGCAG	11000 fluorescence intensity (a.u.)
AGCATTCTTTCTCCTTCGGTCCTTCCTCATACTCACCATTCGGAGTCACCTAGTGCAG	9620 fluorescence intensity (a.u.)
AGCAAGCGCTCTAGCTGTTGACTTTAGCCTCCGGCACATACGGAGTCACCTAGTGCAG	9100 fluorescence intensity (a.u.)
CATAGGTTTGCCGTCGGACGCTGCCAATTCCCAGCCTCTCCGGAGTCACCTAGTGCAG	8350 fluorescence intensity (a.u.)
ACAGCATATTACTCCTACTACTACGTATACATAGACGCAACGGAGTCACCTAGTGCAG	10400 fluorescence intensity (a.u.)

A second format for some results above.
Sequence,binding signal
CATTGGGCGGGCAGTCTATGACCTATGAAAGCTATCAAATCGGAGTCACCTAGTGCAG,12400 fluorescence intensity (a.u.)
AAGCGTCATCCTTATCGATCTTTCCATGATTTTTCAAAGACGGAGTCACCTAGTGCAG,8380 fluorescence intensity (a.u.)
GTGGCTGCGTGTGGTGGCGTTGCACGGCTCGGGTGGGCTCCGGAGTCACCTAGTGCAG,8660 fluorescence intensity (a.u.)
CACCTGCGCCTCGCATCCTACCTCGCCTGCCGCTTCAATCCGGAGTCACCTAGTGCAG,9200 fluorescence intensity (a.u.)
GCCGCCGCCGCCCTCGCCGTTGATTCCGCCGCCCGCCGCGCGGAGTCACCTAGTGCAG,9900 fluorescence intensity (a.u.)
AACACCAATCACCACGTACGCCGACCAACCCCATCCACCCCGGAGTCACCTAGTGCAG,8660 fluorescence intensity (a.u.)
CGTTGTACTAACATATGTCGCATACAGTTCTGATTTGTTTCGGAGTCACCTAGTGCAG,10100 fluorescence intensity (a.u.)
TGATATGGTGGGTTTGGACTTGTAGATGGGCATATGTACGCGGAGTCACCTAGTGCAG,8220 fluorescence intensity (a.u.)
GCTATTGACATAGTTCATGCTGTCTCGTACTTACATGGATCGGAGTCACCTAGTGCAG,9200 fluorescence intensity (a.u.)
ATCCATGCTAGCTTGCTCCGTATCTTTGACTTCACATTTACGGAGTCACCTAGTGCAG,9090 fluorescence intensity (a.u.)
GTGAGCAGGTCAATAGTATGTGTGATTTAGTTTGACCAGGCGGAGTCACCTAGTGCAG,11500 fluorescence intensity (a.u.)
CTTTACTTTGCAGCTATTTTGCTTCTGCTTCTTCTTGTTCCGGAGTCACCTAGTGCAG,9780 fluorescence intensity (a.u.)
TTTATCAGTTTCATTCTGAATTTCTGACAAGACATGCTAACGGAGTCACCTAGTGCAG,8880 fluorescence intensity (a.u.)
TATATATGTTTTTTTAATAGAAGTTTTGCATACATTTTTTCGGAGTCACCTAGTGCAG,9720 fluorescence intensity (a.u.)
TTCCTGCATGTTTCGGTTGCTAGATTGTTTCCTTGGGCGGCGGAGTCACCTAGTGCAG,8480 fluorescence intensity (a.u.)

The listing continues:

Sequence	binding signal
GCGACGCCAACGACTACCCGCGCCGCCGCTACGTCTCCTACGGAGTCACCTAGTGCAG	9820 fluorescence intensity (a.u.)
ATCATCGTTTTTGCTTGCGTCTCTTAATTAAATGCATCCACGGAGTCACCTAGTGCAG	9120 fluorescence intensity (a.u.)
ACTGACAGACAGGTAACCATACTCTGTTTTCCCCTGTTCTCGGAGTCACCTAGTGCAG	8970 fluorescence intensity (a.u.)
GTGGGTTGAGATGATTGTTAGTAACAAAAGTTTAGTAAGACGGAGTCACCTAGTGCAG	9940 fluorescence intensity (a.u.)
TGGTTGGAGGGATGAGGTCTTATAAGTTAGTTCCACCCTTCGGAGTCACCTAGTGCAG	9520 fluorescence intensity (a.u.)
ATCCCCATTGCTAGTATCTCTCTCTCGCTCTCTCTCCGCCCGGAGTCACCTAGTGCAG	9690 fluorescence intensity (a.u.)
AATATTCAGTTGTCAGTTACTTGGTTTTCAAGCGAGCTACCGGAGTCACCTAGTGCAG	8150 fluorescence intensity (a.u.)
GCTCTGGGGTGAGTCTTTCTTTCAATTCCTCGCAACATAGCGGAGTCACCTAGTGCAG	9380 fluorescence intensity (a.u.)
GATAGGTTGTGTGTGTGCAGTGTGTGTTTATAAGAGGTGACGGAGTCACCTAGTGCAG	10200 fluorescence intensity (a.u.)
ACACTTCCGGCCATATATTTCAACAAATGCAATTCGTCAACGGAGTCACCTAGTGCAG	8520 fluorescence intensity (a.u.)
TGATGAATTCCGCGAGTATTACCGTTTGTATTGTGTTTATCGGAGTCACCTAGTGCAG	11400 fluorescence intensity (a.u.)
TCCAACTTTTTCCTTGCCTCACAATAGTCTGTGTGATAACCGGAGTCACCTAGTGCAG	8760 fluorescence intensity (a.u.)
ACCACCATTTTCCGATGATAACATCACACCACCATTTTACCGGAGTCACCTAGTGCAG	11600 fluorescence intensity (a.u.)
TTAGCCCTTCATCTGCGTGGTGTGTACTGTGAAAAGGGCACGGAGTCACCTAGTGCAG	8820 fluorescence intensity (a.u.)
GCGTGTTCTTTTTGTTCCAGCCCCAGGATACGAAGGACTTCGGAGTCACCTAGTGCAG	8260 fluorescence intensity (a.u.)
GCCCGACTTACTATAACATTGATTGTTATGTCACTTGTCTCGGAGTCACCTAGTGCAG	8670 fluorescence intensity (a.u.)
CCTTCATTTTTACTAACTTTTTTTTCTTGTCATGTAACAACGGAGTCACCTAGTGCAG	8960 fluorescence intensity (a.u.)
ATAGGTGTTTCTTTCTATTCATTTGATCCTTATTATTAACCGGAGTCACCTAGTGCAG	12600 fluorescence intensity (a.u.)
TCCCCAATTCTCCCGTCCACCGGCCGCGGACCTCGCCGGACGGAGTCACCTAGTGCAG	8140 fluorescence intensity (a.u.)
CCCGATTCTTCTCACTACTGCCGACCAGTGTGGGCTACTACGGAGTCACCTAGTGCAG	8150 fluorescence intensity (a.u.)
TATCCAATTTTGATTGTCCGTCTTATATGAAATTTTTTTACGGAGTCACCTAGTGCAG	9350 fluorescence intensity (a.u.)
